Earlier results in publication PMC9974466 (Proceedings of the National Academy of Sciences of the …, 2023).

B1: KSVKKRSVSEIQ … LMHNLGKHLNSMERVEWLRKKLQDVHNFVALGAPLAPRDAGSQRPRKKEDNVLVESHEKSLGEADKADVNVLTKAKSQ (protein, UniProt P01270 26-115, looked up)
pro-form: KSVKKRSVSEIQLMHNLGKHLNSMERVEWLRKKLQDVHNFVALGAPLAPRDAGSQRPRKKEDNVLVESHEKSLGEADKADVNVLTKAKSQ
modifications: pro-form

Test system: GH4C1 cells
Conditions: CM from GH4C1 cells infected with human preproPTH vector, antibody raised against [S1]PTH(−6 to +7); ref [5]; cited from earlier work

Molecule | Detection in CM by Western blot
SVSEIQ … LMHNLGKHLNSMERVEWLRKKLQDVHNFVALGAPLAPRDAGSQRPRKKEDNVLVESHEKSLGEADKADVNVLTKAKSQ [PTH(1-84), Recombinant PTH(1-84) was from Chugai Pharmaceutical Co., Ltd] | can be detected by Western blot analysis
B1 | but not proPTH
